Test results: PubChem BioAssay AID590 (National Center for Advancing Translational Sciences (NCATS), 2007)
Screen size: about 59,000 compounds; about 6,500 (11%) were called active. This list was built around the results that the source calls inconclusive (neither active nor inactive); the mix of calls is not that of the screen. Cut-off read from the data, not from the text of the source: active = max dye-equivalent concentration above about 10 nM; inconclusive = mostly about 1.1 nM to 9.6 nM; inactive = weaker than that.

assay: qHTS Assay for Spectroscopic Profiling in A350 Spectral Region; conditions: Compound autofluorescence, 340/450 nm, Alexa 350 dye-equivalents; stronger effect = higher value

| SMILES | max dye-equivalent concentration |
| --- | --- |
| CCc1ccc2[nH]c(=O)c(CN(Cc3ccccc3OC)Cc3nnnn3Cc3ccco3)cc2c1 | active: 130 nM |
| CN(CCCC(=O)Nc1ccncc1)S(=O)(=O)c1ccc(Cl)cc1 | inactive |
| CCOc1ccc(S(=O)(=O)Nc2nc3ccccc3nc2N2CCN(C)CC2)cc1 | active: 110 nM |
| COc1ccc(-n2c(NC(=O)c3ccco3)c(C#N)c3nc4ccccc4nc32)cc1 | active: 120 nM |
| Brc1cccc(-c2n[nH]c(-c3ccccc3)n2)c1 | active: 11 nM |
| CCOC(=O)c1sc(Nc2nc3c(OC)cccc3s2)nc1C | active: 64 nM |
| Cc1ccc(-n2nnnc2SCC(=O)c2c(N)n(CC(C)C)c(=O)n(C)c2=O)cc1 | inconclusive: 2.1 nM |
| COc1ccccc1Nc1ncc(C(=O)N2CCC(C(N)=O)CC2)c2ccccc12 | inconclusive: 3.2 nM |
| CN(Cc1ccco1)c1nc(-c2cccnc2)nc2ccccc12 | inconclusive: 2 nM |
| CCCc1nc2ccccc2c(C(=O)OCc2nnc(-c3cc(OC)c(OC)c(OC)c3)o2)c1CC | inconclusive: 8.3 nM |
| Cc1ccc2cc(CNC(C)C)c(=O)[nH]c2c1 | inconclusive: 8.9 nM |
| CCCCNC(=O)CN1CCC2(O)CCCCC2C1c1ccccc1OC (stereo not drawn) | inconclusive: 5.5 nM |
| Cc1c(C(=O)N2CC(C)OC(C)C2)sc2nc(-c3ccccc3)cn12 (stereo not drawn) | inconclusive: 6.1 nM |
| O=c1c(-c2cccc(Cl)c2)nc2cncnc2n1-c1ccccc1 | inconclusive: 2.1 nM |
| C[C@]12CC[C@@H]3c4ccc(OS(=O)(=O)O)cc4CC[C@H]3[C@@H]1CCC2=O | inconclusive: 1.3 nM |
| CCOC(=O)N1CCN(S(=O)(=O)c2ccc(F)c(C(=O)Nc3cccc(C)c3C)c2)CC1 | inactive |
| CCCCOC(=O)c1ccc(NC(=O)c2cnccn2)cc1 | inconclusive: 1.1 nM |
| CCn1cc(C(=O)O)c(=O)c2cc(OC)ccc21 | inconclusive: 3.7 nM |
| O=S(=O)(c1cccs1)N1CN(Cc2cccs2)c2nc3ccccc3nc21 | inconclusive: 2.7 nM |
| CC(C)CC(=O)NC1(C(F)(F)F)C(=O)Nc2c1c(=O)[nH]c(=O)n2Cc1ccco1 (stereo not drawn) | inconclusive: 2.7 nM |

Retrieved one by one from the entries so far, four records:

| SMILES | max dye-equivalent concentration |
| --- | --- |
| O=S(=O)(c1cccs1)N1CN(Cc2cccs2)c2nc3ccccc3nc21 | inconclusive: 2.7 nM |
| CCc1ccc2[nH]c(=O)c(CN(Cc3ccccc3OC)Cc3nnnn3Cc3ccco3)cc2c1 | active: 130 nM |
| CCCCOC(=O)c1ccc(NC(=O)c2cnccn2)cc1 | inconclusive: 1.1 nM |
| CN(Cc1ccco1)c1nc(-c2cccnc2)nc2ccccc12 | inconclusive: 2 nM |

(continued)

| SMILES | max dye-equivalent concentration |
| --- | --- |
| O=C(O)CCCC(=O)Nc1ccc(N2CCCC2)cc1 | inconclusive: 4.2 nM |
| CCOc1ccc(NCc2nnc(SCC(=O)Nc3cc(C)on3)n2-c2ccccc2OC)cc1 | inconclusive: 1.3 nM |
| CC(CP(=O)(O)O)NC(=O)Cc1ccccc1 (stereo not drawn) | inconclusive: 1.1 nM |
| O=c1c2ccccc2nc(SCc2cn3ccsc3n2)n1-c1ccc(F)cc1 | inactive |
| COc1cc(NC(=O)c2ccco2)c(OC)cc1NC(=O)CCC(=O)Nc1cccc(C)c1C | inconclusive: 9.5 nM |
| COC(=O)[C@]1(C)CCC(c2ccc(C)cc2)=C(CC(=O)O)C1 | inactive |
| CCCC(=O)OCCn1c(Br)nc2c1c(=O)[nH]c(=O)n2C | inconclusive: 2.4 nM |
| Cn1c(=O)c2cn3ncccc3c2n(C)c1=O | active: 15 nM |
| Cc1cc(Nc2ccc3ccccc3c2)n2ncnc2n1 | inconclusive: 1.6 nM |
| COCCNC(=S)c1ccc(OC)cc1 | inconclusive: 9 nM |
| CNC(=O)CSc1nnc(CCc2ccccc2)n1-c1ccccc1 | inconclusive: 1.6 nM |
| CC1CN(C2CCN(S(=O)(=O)Cc3ccccc3)CC2)CC(C)O1 (stereo not drawn) | inactive |
| CCn1c(N)c(C(=O)NCc2cccnc2)sc1=S | inactive |
| CC1(C)CC(=O)C2=C(C1)NCN(CCCN1CCOCC1)C2 | inconclusive: 7.6 nM |
| CCOc1cc(NC(=O)c2ccco2)c(OCC)cc1NC(=O)Cc1cccc(OC)c1 | inconclusive: 9.3 nM |
| C/C(Cl)=C\CNC(C)c1ccccc1 (stereo not drawn) | inconclusive: 1.1 nM |
| C[N+](C)(C)[C@H](Cc1c[nH]c(=S)[nH]1)C(=O)O | inactive |
| O=c1[nH]c(N2CCc3ccccc32)nc2c1CCCC2 | inconclusive: 1.1 nM |
| CCCCOC(=O)n1ccc(C(=O)Nc2ccccc2OC)n1 | inconclusive: 1.2 nM |
| CCOC(=O)c1cc2n(c1N)-c1ccccc1C2=O | inactive |

| SMILES | max dye-equivalent concentration |
| --- | --- |
| COC(=O)c1ccc2c(=O)n(CC3CCCO3)c(=S)[nH]c2c1 (stereo not drawn) | inconclusive: 3.2 nM |
| CC(C)COCC1CC2(CC(C)C(=O)CC2=O)C(=O)O1 (stereo not drawn) | inactive |
| CCOc1ccccc1C1CC(=O)Nc2cc3c(cc21)OCCO3 (stereo not drawn) | inactive |
| N=c1c(C(=O)NC2CCCC2)cc2c(=O)n3ccccc3nc2n1CCN1CCOCC1 | active: 8600 nM |
| C=CCn1c(SCC(=O)Nc2ccccc2OC)nnc1-c1ccccn1 | inconclusive: 1.2 nM |
| O=C(Cn1nc(Cl)nc1Cl)Nc1ccccc1 | inconclusive: 4.6 nM |
| CCCCn1c(SCc2nnc(-c3ccccc3)o2)nc2c1c(=O)n(C)c(=O)n2C | inactive |
| COCCn1c(=O)c(-c2ccc(OC)cc2)nc2cnc(Nc3ccccc3)nc21 | active: 12 nM |
| COc1ccc(CN2CC(C(=O)NCCCN3CCN(C)CC3)CC2=O)cc1 (stereo not drawn) | inconclusive: 1.6 nM |
| CN(C)c1ccc(/C=C/c2cc[n+]([O-])cc2)cc1 | inconclusive: 4.2 nM |
| Cc1cnn(-c2nc(-c3cccs3)cc(C(F)(F)F)n2)c1 | inconclusive: 1.4 nM |
| COc1ccc(CNc2nc3nc(C)c(Cl)c(=O)n3[nH]2)cc1OC | inconclusive: 1.9 nM |
| Cc1nc2ccccc2c(=O)n1/N=C/c1ccc(O)cc1 | inconclusive: 1.1 nM |
| CCOC(=O)N1CCN(Cc2nc3c(c(=O)n(C)c(=O)n3C)n2Cc2cccc(C)c2)CC1 | inactive |
| COc1cccc(Nc2ncc3nc(-c4cn(C)c5ccccc45)c(=O)n(C[C@H]4CCCO4)c3n2)c1 | inactive |
| CCOC(=O)C(NC(=O)Nc1cccc(C)n1)(OCC(F)(F)F)C(F)(F)F (stereo not drawn) | inconclusive: 3.7 nM |
| Cc1ccc(NC(=O)CCn2cnc3ccccc3c2=O)cc1Cl | inactive |
| CC(C)Oc1ccc(NC(=O)c2ccncc2)cc1 | inactive |
